Test results reported in publication doi:10.1101/419721 (bioRxiv, 2018).
No constants are given. Whether binding was seen depends on the method and setting. For part of these data: In cells and extracts the contact can be indirect. Some entries that bind do so weakly or less than the wild type. Sequences can lack the tags named with a protein.

Protein sequences, listed by entry. Tags and fused reporters are not part of them. Lines headed by an entry give the natural chain unless they say otherwise; changes in a name come on top. Residues count along the entry.
UniProt Q15418: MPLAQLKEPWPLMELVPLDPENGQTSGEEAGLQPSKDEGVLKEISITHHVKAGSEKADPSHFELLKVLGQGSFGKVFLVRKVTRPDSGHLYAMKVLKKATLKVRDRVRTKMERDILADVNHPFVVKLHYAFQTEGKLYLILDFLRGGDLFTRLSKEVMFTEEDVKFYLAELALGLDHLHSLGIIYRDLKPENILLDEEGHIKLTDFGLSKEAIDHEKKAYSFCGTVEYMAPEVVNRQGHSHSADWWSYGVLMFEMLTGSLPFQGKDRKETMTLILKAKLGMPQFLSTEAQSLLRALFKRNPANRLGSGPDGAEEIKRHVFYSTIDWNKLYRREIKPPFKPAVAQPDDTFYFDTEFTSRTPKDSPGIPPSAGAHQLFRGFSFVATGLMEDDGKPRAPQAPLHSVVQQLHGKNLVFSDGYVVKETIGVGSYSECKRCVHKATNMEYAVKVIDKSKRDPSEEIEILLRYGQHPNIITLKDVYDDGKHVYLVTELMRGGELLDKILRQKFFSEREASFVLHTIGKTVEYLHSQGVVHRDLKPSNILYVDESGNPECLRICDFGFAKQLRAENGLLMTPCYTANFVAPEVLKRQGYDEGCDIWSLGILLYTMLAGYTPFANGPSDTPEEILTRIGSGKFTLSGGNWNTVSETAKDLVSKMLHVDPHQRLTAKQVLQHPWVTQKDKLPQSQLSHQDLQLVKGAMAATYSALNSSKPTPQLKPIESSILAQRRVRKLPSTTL
UniProt Q96QZ7: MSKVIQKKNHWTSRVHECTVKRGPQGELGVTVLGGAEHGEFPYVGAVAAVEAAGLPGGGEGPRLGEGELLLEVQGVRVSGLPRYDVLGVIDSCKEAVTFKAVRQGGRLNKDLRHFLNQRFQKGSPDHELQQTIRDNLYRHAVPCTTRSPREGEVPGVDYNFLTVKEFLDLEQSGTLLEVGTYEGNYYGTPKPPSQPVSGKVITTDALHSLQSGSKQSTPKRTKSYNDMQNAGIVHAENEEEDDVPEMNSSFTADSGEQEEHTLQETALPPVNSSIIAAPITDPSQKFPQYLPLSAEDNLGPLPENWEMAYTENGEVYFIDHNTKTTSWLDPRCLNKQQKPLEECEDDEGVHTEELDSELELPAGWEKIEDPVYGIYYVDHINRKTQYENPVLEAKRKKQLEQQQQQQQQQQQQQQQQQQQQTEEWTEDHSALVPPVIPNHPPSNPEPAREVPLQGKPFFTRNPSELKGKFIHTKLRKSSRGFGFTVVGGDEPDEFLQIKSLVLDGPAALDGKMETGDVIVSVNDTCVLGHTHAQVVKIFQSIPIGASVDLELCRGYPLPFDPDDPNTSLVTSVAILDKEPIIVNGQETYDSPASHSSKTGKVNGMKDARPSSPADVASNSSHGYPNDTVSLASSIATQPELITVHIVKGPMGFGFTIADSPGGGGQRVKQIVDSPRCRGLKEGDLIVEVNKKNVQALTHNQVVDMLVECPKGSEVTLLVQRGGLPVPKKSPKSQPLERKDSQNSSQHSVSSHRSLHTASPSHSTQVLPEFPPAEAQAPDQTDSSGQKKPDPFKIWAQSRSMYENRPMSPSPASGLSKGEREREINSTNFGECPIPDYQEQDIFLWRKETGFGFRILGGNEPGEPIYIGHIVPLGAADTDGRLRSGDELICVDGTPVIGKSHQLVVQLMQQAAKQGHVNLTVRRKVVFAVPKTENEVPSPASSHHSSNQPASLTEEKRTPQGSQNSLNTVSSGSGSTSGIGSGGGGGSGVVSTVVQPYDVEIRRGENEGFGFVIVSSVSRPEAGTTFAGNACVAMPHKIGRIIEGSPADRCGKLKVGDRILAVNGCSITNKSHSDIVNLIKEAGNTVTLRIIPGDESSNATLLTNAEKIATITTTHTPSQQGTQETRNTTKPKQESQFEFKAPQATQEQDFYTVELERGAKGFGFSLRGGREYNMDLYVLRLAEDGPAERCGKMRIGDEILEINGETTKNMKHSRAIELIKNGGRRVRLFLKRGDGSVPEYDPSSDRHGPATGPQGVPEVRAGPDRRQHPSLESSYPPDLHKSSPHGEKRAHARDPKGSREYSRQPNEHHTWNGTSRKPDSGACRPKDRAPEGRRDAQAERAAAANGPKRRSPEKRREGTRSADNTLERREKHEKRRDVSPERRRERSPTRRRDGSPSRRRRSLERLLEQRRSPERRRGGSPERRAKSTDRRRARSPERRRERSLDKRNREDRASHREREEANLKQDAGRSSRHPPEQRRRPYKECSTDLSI
UniProt Q6P0Q8, residues 1104-1192: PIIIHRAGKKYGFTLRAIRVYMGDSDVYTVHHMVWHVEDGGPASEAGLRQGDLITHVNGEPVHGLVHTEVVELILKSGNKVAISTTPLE

Columns and labels:
[1] = molecular target: full-length RSK1, wild type, SmBiT tagged (human (cDNA from HEK293T or HeLa)) (UniProt Q15418); assay: split reporter
[2] = molecular target: T1, biotinylated unphosphorylated RSK1 PBM peptide (RSK1 725-735) (UniProt Q15418); assay: holdup assay
T1 sequence (peptide, biotin attached to the N-terminal via a TTDS linker): RRVRKLPSTTL

[3] = molecular target: full-length RSK1 L714E, SmBiT tagged (human (cDNA from HEK293T or HeLa)) (UniProt Q15418); assay: split reporter

## full-length MAGI1, LgBiT tagged (from UniProt Q96QZ7 1-1491)
[1]
  binding: binds

## PDZ domain of MAST2 (from UniProt Q6P0Q8 1104-1192) (domain or fragment)
[2]
  binding: binds

B1: PDZ domain of ARHGEF12 (MBP-PDZ) (domain or fragment, UniProt Q9NZN5 72-151)
chain: CVIIQKDDNGFGLTVSGDNPVFVQSVKEDGAAMRAGVQTGDRIIKVNGTLVTHSNHLEVVKLIKSGSYVALTVQGRPPGS
[2]
  binding: binds

B2: PDZ domain of SYNJ2BP (MBP-PDZ) (domain or fragment, UniProt P57105 13-100)
chain: EINLTRGPSGLGFNIVGGTDQQYVSNDSGIYVSRIKENGAAALDGRLQEGDKILSVNGQDLKNLLHQDAVDLFRNAGYAVSLRVQHRL
[2]
  binding: binds

B3: PDZ domain of ARHGEF11 (domain or fragment, UniProt O15085 47-126)
chain: CVIIQKDQHGFGFTVSGDRIVLVQSVRPGGAAMKAGVKEGDRIIKVNGTMVTNSSHLEVVKLIKSGAYVALTLLGSSPSS
[2]
  binding: binds

B4: PARD3B (1-913), LgBiT tagged (protein, UniProt Q8TEW8 1-913)
chain: MKVTVCFGRTGIVVPCKEGQLRVGELTQQALQRYLKTREKGPGYWVKIHHLEYTDGGILDPDDVLADVVEDKDKLIAVFEEQEPLHKIESPSGNPADRQSPDAFETEVAAQLAAFKPIGGEIEVTPSALKLGTPLLVRRSSDPVPGPPADTQPSASHPGGQSLKLVVPDSTQNLEDREVLNGVQTELLTSPRTKDTLSDMTRTVEISGEGGPLGIHVVPFFSSLSGRILGLFIRGIEDNSRSKREGLFHENECIVKINNVDLVDKTFAQAQDVFRQAMKSPSVLLHVLPPQNREQYEKSVIGSLNIFGNNDGVLKTKVPPPVHGKSGLKTANLTGTDSPETDASASLQQNKSPRVPRLGGKPSSPSLSPLMGFGSNKNAKKIKIDLKKGPEGLGFTVVTRDSSIHGPGPIFVKNILPKGAAIKDGRLQSGDRILEVNGRDVTGRTQEELVAMLRSTKQGETASLVIARQEGHFLPRELKGEPDCCALSLETSEQLTFEIPLNDSGSAGLGVSLKGNKSRETGTDLGIFIKSIIHGGAAFKDGRLRMNDQLIAVNGESLLGKSNHEAMETLRRSMSMEGNIRGMIQLVILRRPERPMEDPAECGAFSKPCFENCQNAVTTSRRNDNSILHPLGTCSPQDKQKGLLLPNDGWAESEVPPSPTPHSALGLGLEDYSHSSGVDSAVYFPDQHINFRSVTPARQPESINLKASKSMDLVPDESKVHSLAGQKSESPSKDFGPTLGLKKSSSLESLQTAVAEVRKNDLPFHRPRPHMVRGRGCNESFRAAIDKSYDGPEEIEADGLSDKSSHSGQGALNCESAPQGNSELEDMENKARKVKKTKEKEKKKEKGKLKVKEKKRKEENEDPERKIKKKGFGAMLRFGKKKEDKGGKAEQKGTLKHGGLREEELEKMKEERE
[1]
  binding: binds
[3]
  binding: binds

B5: full-length SYNJ2BP, LgBiT tagged (protein, UniProt P57105 1-145)
chain: MNGRVDYLVTEEEINLTRGPSGLGFNIVGGTDQQYVSNDSGIYVSRIKENGAAALDGRLQEGDKILSVNGQDLKNLLHQDAVDLFRNAGYAVSLRVQHRLQVQNGPIGHRGEGDPSGIPIFMVLVPVFALTMVAAWAFMRYRQQL
[1]
  binding: binds
[3]
  binding: binds
